According to the supplement of paper PMC12819154, “High-throughput peptide-centric local stability assay extends protein–ligand identification to membrane proteins, tissues and bacteria” (Nature Structural & Molecular Biology, 2025):
Some of the results follow. Most values lie at the level of the controls, where differences are scatter.

Protein sequences, listed by entry. Tags and fused reporters are not part of them. Lines headed by an entry give the natural chain unless they say otherwise; changes in a name come on top.
UniProt A2A5Z6, whole entry: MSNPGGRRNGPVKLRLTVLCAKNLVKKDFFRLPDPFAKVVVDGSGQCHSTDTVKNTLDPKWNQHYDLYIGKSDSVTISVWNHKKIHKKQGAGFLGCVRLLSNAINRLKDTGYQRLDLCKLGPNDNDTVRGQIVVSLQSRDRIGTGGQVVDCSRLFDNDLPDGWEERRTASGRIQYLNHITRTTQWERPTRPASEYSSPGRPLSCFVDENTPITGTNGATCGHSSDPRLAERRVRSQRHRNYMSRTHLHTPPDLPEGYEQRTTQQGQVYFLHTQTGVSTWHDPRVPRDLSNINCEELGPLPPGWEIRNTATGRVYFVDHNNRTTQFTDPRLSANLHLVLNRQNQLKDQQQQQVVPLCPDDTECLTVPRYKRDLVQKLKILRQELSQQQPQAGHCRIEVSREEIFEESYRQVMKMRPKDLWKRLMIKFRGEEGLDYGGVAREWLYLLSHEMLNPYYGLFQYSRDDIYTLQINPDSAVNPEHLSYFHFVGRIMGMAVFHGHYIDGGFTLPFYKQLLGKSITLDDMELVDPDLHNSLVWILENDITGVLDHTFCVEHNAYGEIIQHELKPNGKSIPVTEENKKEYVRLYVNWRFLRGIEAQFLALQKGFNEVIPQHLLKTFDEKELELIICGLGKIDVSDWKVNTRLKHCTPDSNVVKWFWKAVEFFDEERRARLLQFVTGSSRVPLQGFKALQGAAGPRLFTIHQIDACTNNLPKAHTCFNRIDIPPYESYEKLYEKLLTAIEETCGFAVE
UniProt B1AY10: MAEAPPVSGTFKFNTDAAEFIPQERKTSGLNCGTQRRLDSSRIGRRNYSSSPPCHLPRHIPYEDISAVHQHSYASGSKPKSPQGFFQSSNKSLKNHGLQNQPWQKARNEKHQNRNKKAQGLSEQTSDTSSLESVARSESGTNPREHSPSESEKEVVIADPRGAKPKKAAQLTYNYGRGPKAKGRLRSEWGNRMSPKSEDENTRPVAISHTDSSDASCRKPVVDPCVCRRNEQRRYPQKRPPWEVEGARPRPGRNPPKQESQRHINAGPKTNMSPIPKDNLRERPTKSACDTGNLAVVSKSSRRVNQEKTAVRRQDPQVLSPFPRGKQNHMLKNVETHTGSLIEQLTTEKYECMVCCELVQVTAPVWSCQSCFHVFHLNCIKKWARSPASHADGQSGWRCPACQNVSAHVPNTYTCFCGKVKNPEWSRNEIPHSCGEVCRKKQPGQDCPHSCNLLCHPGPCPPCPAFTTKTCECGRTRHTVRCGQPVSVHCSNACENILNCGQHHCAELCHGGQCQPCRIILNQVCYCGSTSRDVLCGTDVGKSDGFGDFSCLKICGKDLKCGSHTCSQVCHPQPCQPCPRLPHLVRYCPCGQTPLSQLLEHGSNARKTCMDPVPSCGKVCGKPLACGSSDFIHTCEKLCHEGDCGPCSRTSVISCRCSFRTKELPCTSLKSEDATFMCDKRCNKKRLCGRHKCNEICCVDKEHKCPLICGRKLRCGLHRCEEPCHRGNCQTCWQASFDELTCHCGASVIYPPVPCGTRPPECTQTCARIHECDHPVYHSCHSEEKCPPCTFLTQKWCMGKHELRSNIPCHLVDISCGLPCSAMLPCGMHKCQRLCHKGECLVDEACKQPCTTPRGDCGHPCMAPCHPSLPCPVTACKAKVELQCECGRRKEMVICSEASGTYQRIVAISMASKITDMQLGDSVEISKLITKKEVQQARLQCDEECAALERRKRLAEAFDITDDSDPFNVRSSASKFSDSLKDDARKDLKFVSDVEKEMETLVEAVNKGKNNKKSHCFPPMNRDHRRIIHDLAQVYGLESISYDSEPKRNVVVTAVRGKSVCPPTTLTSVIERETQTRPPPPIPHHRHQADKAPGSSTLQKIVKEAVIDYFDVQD
UniProt A2ALK8: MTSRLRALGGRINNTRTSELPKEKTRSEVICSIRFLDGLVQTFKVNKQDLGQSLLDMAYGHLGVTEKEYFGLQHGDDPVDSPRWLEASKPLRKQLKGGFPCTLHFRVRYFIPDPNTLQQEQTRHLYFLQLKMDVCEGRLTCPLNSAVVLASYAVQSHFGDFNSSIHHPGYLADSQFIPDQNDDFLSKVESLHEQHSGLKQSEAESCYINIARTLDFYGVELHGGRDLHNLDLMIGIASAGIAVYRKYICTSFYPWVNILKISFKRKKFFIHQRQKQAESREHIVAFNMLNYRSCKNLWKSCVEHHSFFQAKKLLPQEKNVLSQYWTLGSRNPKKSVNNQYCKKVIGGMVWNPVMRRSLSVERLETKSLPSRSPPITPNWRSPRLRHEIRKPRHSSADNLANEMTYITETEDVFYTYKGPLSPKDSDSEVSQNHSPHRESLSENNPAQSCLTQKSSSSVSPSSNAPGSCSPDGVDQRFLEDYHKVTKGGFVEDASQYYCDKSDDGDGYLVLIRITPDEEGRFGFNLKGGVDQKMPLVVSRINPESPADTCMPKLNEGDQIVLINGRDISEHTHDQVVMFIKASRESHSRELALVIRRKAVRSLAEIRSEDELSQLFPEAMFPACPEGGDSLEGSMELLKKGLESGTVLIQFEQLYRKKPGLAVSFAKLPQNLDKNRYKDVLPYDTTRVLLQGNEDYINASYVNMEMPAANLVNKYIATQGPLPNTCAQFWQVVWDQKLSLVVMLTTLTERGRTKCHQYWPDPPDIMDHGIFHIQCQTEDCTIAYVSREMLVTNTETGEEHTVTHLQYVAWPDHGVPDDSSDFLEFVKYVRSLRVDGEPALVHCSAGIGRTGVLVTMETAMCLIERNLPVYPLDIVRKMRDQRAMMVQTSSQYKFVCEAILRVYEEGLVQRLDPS
UniProt A2AQ07, whole entry: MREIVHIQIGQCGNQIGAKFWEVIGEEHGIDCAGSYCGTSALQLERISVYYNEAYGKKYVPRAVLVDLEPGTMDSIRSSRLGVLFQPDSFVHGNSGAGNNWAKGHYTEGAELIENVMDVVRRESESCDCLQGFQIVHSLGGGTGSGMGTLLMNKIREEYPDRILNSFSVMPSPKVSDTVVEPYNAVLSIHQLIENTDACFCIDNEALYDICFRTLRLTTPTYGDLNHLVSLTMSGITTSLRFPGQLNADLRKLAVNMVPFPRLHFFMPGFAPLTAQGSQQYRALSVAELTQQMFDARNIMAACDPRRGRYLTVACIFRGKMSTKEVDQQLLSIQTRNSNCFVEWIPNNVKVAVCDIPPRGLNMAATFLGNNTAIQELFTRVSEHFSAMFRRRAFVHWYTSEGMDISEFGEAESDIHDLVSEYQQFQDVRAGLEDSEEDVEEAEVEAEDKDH
UniProt A2TJV2: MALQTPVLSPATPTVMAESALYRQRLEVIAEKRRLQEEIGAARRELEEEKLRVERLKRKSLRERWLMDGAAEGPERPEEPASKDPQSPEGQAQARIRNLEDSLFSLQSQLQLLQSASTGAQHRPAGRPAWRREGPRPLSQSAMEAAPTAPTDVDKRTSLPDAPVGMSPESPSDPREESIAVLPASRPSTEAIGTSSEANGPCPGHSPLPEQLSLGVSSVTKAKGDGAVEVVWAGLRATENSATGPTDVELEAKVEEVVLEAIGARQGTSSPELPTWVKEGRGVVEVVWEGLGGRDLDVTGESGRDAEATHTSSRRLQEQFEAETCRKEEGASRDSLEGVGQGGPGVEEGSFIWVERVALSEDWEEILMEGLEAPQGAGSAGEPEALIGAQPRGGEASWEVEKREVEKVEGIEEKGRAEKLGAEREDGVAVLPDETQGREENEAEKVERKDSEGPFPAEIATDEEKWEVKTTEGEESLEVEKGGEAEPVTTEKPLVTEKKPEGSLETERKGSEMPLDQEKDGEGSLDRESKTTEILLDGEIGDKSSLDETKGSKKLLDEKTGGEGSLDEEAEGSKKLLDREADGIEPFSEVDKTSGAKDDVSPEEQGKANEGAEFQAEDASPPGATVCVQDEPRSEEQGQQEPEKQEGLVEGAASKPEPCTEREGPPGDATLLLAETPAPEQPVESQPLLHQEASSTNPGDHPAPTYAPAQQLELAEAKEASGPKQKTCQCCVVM
UniProt A2AKG8: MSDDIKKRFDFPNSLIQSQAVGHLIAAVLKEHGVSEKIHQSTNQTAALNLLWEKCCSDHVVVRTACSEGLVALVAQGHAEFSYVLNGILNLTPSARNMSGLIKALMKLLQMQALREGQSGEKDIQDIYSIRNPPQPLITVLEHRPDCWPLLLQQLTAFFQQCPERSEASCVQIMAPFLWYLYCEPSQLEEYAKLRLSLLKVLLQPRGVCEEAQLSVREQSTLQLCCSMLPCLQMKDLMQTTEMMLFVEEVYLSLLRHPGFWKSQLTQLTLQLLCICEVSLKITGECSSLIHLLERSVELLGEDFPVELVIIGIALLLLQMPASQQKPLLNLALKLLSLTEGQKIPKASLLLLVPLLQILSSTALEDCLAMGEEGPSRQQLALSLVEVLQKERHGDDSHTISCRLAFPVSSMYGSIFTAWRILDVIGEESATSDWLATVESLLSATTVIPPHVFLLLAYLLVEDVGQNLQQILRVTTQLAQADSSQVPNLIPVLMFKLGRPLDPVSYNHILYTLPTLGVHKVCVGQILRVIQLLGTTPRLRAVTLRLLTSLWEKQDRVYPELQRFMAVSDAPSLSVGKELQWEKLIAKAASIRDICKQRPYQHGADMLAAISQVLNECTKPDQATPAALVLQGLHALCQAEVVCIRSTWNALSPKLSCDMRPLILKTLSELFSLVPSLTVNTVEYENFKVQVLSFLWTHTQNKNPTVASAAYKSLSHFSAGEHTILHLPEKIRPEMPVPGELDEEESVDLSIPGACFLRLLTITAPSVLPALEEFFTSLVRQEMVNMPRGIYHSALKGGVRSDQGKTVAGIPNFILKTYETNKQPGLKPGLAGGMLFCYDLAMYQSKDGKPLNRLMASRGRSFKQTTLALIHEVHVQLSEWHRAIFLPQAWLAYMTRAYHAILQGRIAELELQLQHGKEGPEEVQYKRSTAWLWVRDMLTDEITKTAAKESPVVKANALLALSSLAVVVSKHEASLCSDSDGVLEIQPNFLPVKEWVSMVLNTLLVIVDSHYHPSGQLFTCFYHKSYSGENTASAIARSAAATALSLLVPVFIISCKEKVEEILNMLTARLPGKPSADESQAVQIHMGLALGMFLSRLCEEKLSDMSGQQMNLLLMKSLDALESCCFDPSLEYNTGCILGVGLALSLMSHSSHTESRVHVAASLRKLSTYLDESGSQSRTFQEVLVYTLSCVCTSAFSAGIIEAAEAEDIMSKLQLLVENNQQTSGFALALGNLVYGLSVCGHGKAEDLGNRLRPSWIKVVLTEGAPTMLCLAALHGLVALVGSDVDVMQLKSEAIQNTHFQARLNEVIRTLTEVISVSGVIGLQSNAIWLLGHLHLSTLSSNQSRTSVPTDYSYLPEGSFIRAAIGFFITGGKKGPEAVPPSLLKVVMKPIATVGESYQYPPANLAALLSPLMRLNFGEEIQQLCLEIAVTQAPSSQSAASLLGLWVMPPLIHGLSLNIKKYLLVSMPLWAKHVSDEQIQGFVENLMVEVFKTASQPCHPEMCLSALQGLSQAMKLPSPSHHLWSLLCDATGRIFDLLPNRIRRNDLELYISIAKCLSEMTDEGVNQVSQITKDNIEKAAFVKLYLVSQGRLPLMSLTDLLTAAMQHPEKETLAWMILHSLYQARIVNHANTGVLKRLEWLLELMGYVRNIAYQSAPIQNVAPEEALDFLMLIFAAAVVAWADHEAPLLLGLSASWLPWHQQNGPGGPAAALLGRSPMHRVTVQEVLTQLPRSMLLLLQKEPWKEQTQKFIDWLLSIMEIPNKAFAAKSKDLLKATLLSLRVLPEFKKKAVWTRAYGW

Compound: CN[C@@H]1C[C@H]2O[C@@](C)([C@@H]1OC)n1c3ccccc3c3c4c(c5c6ccccc6n2c5c31)C(=O)NC4 [staurosporine]
Assay: log2 fold change of tryptic peptide abundance, ligand vs vehicle (limited proteolysis) (log2 ratio); higher = more trypsin-susceptible (destabilized)
Conditions: ligand concentration: 20 uM; sample: mouse liver crude lysate; replicate design: treated separately

Target	log2 fold change
UniProt B1AZA5 (peptide sequence: GGPAEAPSPR, peptide start residue: 5)	-0.0642
UniProt A8Y5H7 (peptide sequence: LRQWLQETHK, peptide start residue: 262)	-0.329
UniProt A2APT9 (peptide sequence: LIPGVGGSCVGDK, peptide start residue: 172)	-0.0808
UniProt A2AR02 (peptide sequence: SKGQENDHVHDKNK, peptide start residue: 723)	0.609
UniProt A2A5Z6 (peptide sequence: THLHTPPDLPEGYEQR, peptide start residue: 245)	-0.126
UniProt A2AHG0 (peptide sequence: LQAELAAER, peptide start residue: 607)	-0.303
UniProt B1AY13 (peptide sequence: ESNSLFPAGIR, peptide start residue: 1354)	0.199
UniProt A3KGV1 (peptide sequence: KEELEEVAHELAETEHENTVLR, peptide start residue: 159)	0.22
UniProt A6H5Y3 (peptide sequence: LNGEKYPRPLNIIEGPLMNGMK, peptide start residue: 684)	0.129
UniProt A9JSM3 (peptide sequence: DYGLRPSAIAR, peptide start residue: 104)	0.391
UniProt A7XV04 (peptide sequence: GGHKMSEEAAPEYANR, peptide start residue: 78)	-0.291
UniProt A2ARP1 (peptide sequence: VYTVGPDYAHAEAR, peptide start residue: 255)	-0.185
UniProt A2A699 (peptide sequence: AWFVSLDGR, peptide start residue: 650)	-0.218
UniProt A2CG49 (peptide sequence: PYSSGPVGSEKPPK, peptide start residue: 2236)	-0.656
UniProt A2AM05 (peptide sequence: KSTPEKNEK, peptide start residue: 669)	0.0938
UniProt A2ADY9 (peptide sequence: SAEDAERQKP, peptide start residue: 390)	-0.597

Target	log2 fold change
UniProt A2A9T0 (peptide sequence: ALVETHLR, peptide start residue: 153)	0.19
UniProt B1AY10 (peptide sequence: NYSSSPPCHLPR, peptide start residue: 47)	-0.496
UniProt A2ALK8 (peptide sequence: NLPVYPLDIVR, peptide start residue: 865)	0.432
UniProt B1AVY7 (peptide sequence: SKTTITNLKIPEGGTGDSGR, peptide start residue: 31)	0.354
UniProt A2AGH6 (peptide sequence: AAFGILSYEHRPLKR, peptide start residue: 2)	0.254
UniProt A2AM29 (peptide sequence: VKIESETSEK, peptide start residue: 339)	-0.0199
UniProt A2AQH4 (peptide sequence: GSQAGAEGQPSTVK, peptide start residue: 764)	0.389
UniProt A2AQ07 (peptide sequence: IREEYPDR, peptide start residue: 155)	-0.0886
UniProt A2AHC3 (peptide sequence: ADGAPQPLRPEHFTK, peptide start residue: 920)	0.403
UniProt A2AJB2 (peptide sequence: DISTDPHD, peptide start residue: 101)	-0.0996
UniProt A2TJV2 (peptide sequence: RLQEEIGAAR, peptide start residue: 34)	0.0235
UniProt A2ACJ2 (peptide sequence: MAMANAGQK, peptide start residue: 444)	-0.313
UniProt B2RPV6 (peptide sequence: NQRPSYQKPSFETTR, peptide start residue: 177)	-0.202
UniProt B1AXH1 (peptide sequence: EAATLFVTR, peptide start residue: 436)	-0.448
UniProt A2AKG8 (peptide sequence: KLSTYLDESGSQSR, peptide start residue: 1165)	0.627

Looked up above:
log2 fold change with UniProt A6H5Y3 (peptide sequence: LNGEKYPRPLNIIEGPLMNGMK, peptide start residue: 684) reads 0.129
log2 fold change with UniProt A2A9T0 (peptide sequence: ALVETHLR, peptide start residue: 153) reads 0.19
log2 fold change with UniProt A9JSM3 (peptide sequence: DYGLRPSAIAR, peptide start residue: 104) reads 0.391
